Results: PubChem BioAssay AID2685 (National Center for Advancing Translational Sciences (NCATS), 2010)
The other results are listed elsewhere or left out. Further columns of the screen follow, without active or inactive calls. The list favours compounds with an active or inconclusive main result. The note in brackets gives the kind of curve behind each potency; many fits are weak.

Assay: qHTS Assay for Lipid Storage Modulators in Drosophila S3 Cells;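 on cell number change: cells counted by Cell Tracker Red CMTPX staining in the red channel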
Conditions: BODIPY lipid droplet fluorescence, 18-24 h; for cell number change: measured here: cell count max response, cells fed with added oleic acid
How it was run: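 Laser-scanning cytometry quantifies lipid droplet accumulation (500–530 nm total intensity; droplet/cell object ratio) in oleic acid-fed (400 uM added) Drosophila S3 cells treated with a concentration series. 20 uM Triacsin C defined 100% inhibition.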

[1] = measured here: cell number channel AC50, cells fed with added oleic acid
[2] = measured here: lipid fluorescence (Fed channel) AC50, cells fed with added oleic acid

SMILES | cell number change | AC50 [1] | AC50 [2]
COc1ccc(N=Nc2c(O)[nH]c(=S)[nH]c2=O)cc1 | 117% | 18.4 µM [rising, single point] | 0.103 µM [falling, full curve, poor fit]
COC(=O)C1=C(c2ccc(F)cc2F)C[C@@H]2CC[C@H]1N2C(=O)NCCOc1ccccc1Cl | -23% | – | 0.58 µM [falling, full curve, poor fit]
O=C(N/N=C/c1c(O)n(CCc2ccc(F)cc2)c(=O)[nH]c1=O)c1ccccc1 | 18.6% | – | 8.2 µM [rising, partial curve, poor fit]
Clc1cccc(C2NCCc3[nH]cnc32)c1 (centres undefined) | 18.7% | 0.366 µM [rising, full curve, poor fit] | 29.1 µM [rising, single point]
CCCCCCn1c(=O)c(C(=O)Nc2ncccc2C)c(O)c2ccccc21 | -33.9% | 14.6 µM [falling, partial curve, poor fit] | 6.51 µM [falling, partial curve]
CN(C)c1ccc(P(=S)(N(C)C)N(C)C)cc1 | -17.7% | – | –
Cc1ccc(CNC2=NCCS2)cc1 | -36.2% | – | 0.231 µM [rising, full curve, poor fit]
CC1CN=C(Nc2ccccc2)S1 (centres undefined) | – | – | 4.61 µM [falling, single point]
CCC1(C(=O)c2ccccc2)C2c3ccccc3OC(=O)C21C(C)=O (centres undefined) | -28.3% | – | 9.2 µM [falling, partial curve, poor fit]
CCCCC/C(=N\O)c1c[nH]c2ccccc12 | -18.8% | – | 32.6 µM [falling, single point]
O=C(Nc1nccs1)C(Cl)(Cl)Cl | -122% | – | –
O=C1NC(=O)N(c2ccc3c(c2)OCO3)C(=O)/C1=C/c1ccc(N2CCCC2)o1 | 8.39% | – | 25.9 µM [falling, single point]
CCN(CC)CCN=C(C)c1c(O)n(-c2ccccc2OC)c(=O)[nH]c1=O | 5.71% | – | –
COC(=O)C1=C(c2c(C)noc2C)C[C@@H]2CC[C@H]1N2C(=O)NC1CC1 | 17% | 0.184 µM [rising, full curve, poor fit] | 0.146 µM [rising, full curve, poor fit]
N=C1c2ccccc2CN1NC(=O)C1CC1 | – | 0.103 µM [rising, full curve, poor fit] | 6.51 µM [rising, partial curve, poor fit]
O=C(c1ccc(N2CC3CC(C2)c2cccc(=O)n2C3)c([N+](=O)[O-])c1)N1CCCC1 (centres undefined) | -49.4% | 13 µM [falling, partial curve] | 13 µM [falling, partial curve]
CC(C(=O)O)N(C(=O)c1ccccc1)c1ccc(F)c(Cl)c1 (centres undefined) | 13.5% | 0.00461 µM [falling, full curve, poor fit] | 0.00517 µM [falling, full curve, poor fit]
Cc1ccc(-c2cc(-c3ccc(C)cc3)[n+](C)o2)cc1 | -56.3% | 16.4 µM [falling, single point] | 16.4 µM [falling, single point]
CCC1CCCCN1P(=O)(c1ccc(C)o1)C(C)(C)C (centres undefined) | -8.27% | – | –
O=C(c1ccncc1)C12CN3CN(CN(C3)C1)C2 | -5.7% | – | 2.06 µM [falling, partial curve]
O=C(/C=C/c1ccccc1)NC(=S)N1C[C@H]2C[C@H](C1)c1cccc(=O)n1C2 | 19.4% | – | 29.1 µM [rising, single point]
O=C(Cc1ccccc1)Oc1ccc([N+](=O)[O-])cc1 | -14.6% | – | 0.13 µM [rising, full curve, poor fit]
Cc1cc(C)cc(N2C(=O)NC(=O)/C(=C\c3cc(C)n(C)c3C)C2=O)c1 | – | 6.51 µM [falling, single point] | –
CC(C(=O)c1ccccc1)N1C(=O)c2ccccc2C1=O (centres undefined) | -83.3% | 16.4 µM [falling, partial curve] | 29.1 µM [rising, single point]
CC1CCN(CC(=O)c2ccc3c(c2)OCCO3)CC1 | -8.8% | – | –
O=C1NC(=O)N(c2ccccc2F)C(=O)/C1=C/c1ccc(Sc2nc3ccccc3[nH]2)o1 | -95.4% | 29.1 µM [falling, single point] | –
Cc1ccc(-n2c(O)c(/C=N/N3CCCCC3c3cccnc3)c(=O)[nH]c2=S)cc1 (centres undefined) | 11.7% | – | 0.259 µM [rising, full curve, poor fit]
CC1(C)C(C(=O)N2CCN(C(=O)c3ccccc3)CC2)C1(C)C | -1.61% | – | 29.1 µM [rising, single point]

Two entries picked at random from the list so far:
SMILES | cell number change | AC50 [1] | AC50 [2]
O=C1NC(=O)N(c2ccccc2F)C(=O)/C1=C/c1ccc(Sc2nc3ccccc3[nH]2)o1 | -95.4% | 29.1 µM [falling, single point] | –
O=C(/C=C/c1ccccc1)NC(=S)N1C[C@H]2C[C@H](C1)c1cccc(=O)n1C2 | 19.4% | – | 29.1 µM [rising, single point]

More entries:

SMILES | cell number change | AC50 [1] | AC50 [2]
CCN1CCN(Cc2cc3c(cc2[N+](=O)[O-])OCO3)CC1 | 37.5% | – | 6.51 µM [falling, single point]
CCOC(=O)C(O)(c1ccc(N)c(OC)c1)C(F)(F)F (centres undefined) | -0.317% | 1.46 µM [rising, partial curve, poor fit] | –
Cc1ccccc1NC(=O)NCCN1CC1 | 61% | 29.1 µM [rising, single point] | 0.0731 µM [rising, full curve, poor fit]
Cc1c(N=Nc2c(O)n(Cc3ccccc3)c(=O)[nH]c2=O)c(=O)n(-c2ccccc2)n1C | 14.6% | – | 14.6 µM [falling, partial curve, poor fit]
COC(=O)C1=C(c2c(C)noc2C)C[C@@H]2CC[C@H]1N2C(=O)NCCCOC(C)C | -47.9% | 29.1 µM [falling, single point] | –
Cc1ccc(N2C(=O)NC(=O)/C(=C\c3cc(C)n(-c4cc(C(=O)O)cc(C(=O)O)c4)c3C)C2=O)cc1 | 4.84% | – | 14.6 µM [falling, single point]
O=C(C[n+]1ccn(CCCNP2(=O)C=C(c3ccccc3)OC(c3ccccc3)=C2)c1)c1ccccc1 | 1.7% | 0.651 µM [falling, full curve, poor fit] | –
O=c1c2ccccc2nc(CNCC2CCCO2)n1-c1ccc(F)cc1 (centres undefined) | 90.5% | 18.4 µM [rising, single point] | –
CC(C)(C)C(=O)OCC12CCC(O1)C1(C)C(=O)OCC21 (centres undefined) | -19.6% | – | –
CCCCCC(=O)N[C@@H](c1ccccc1)[C@@H](O)C(=O)O[C@H]1C[C@@]2(O)[C@@H](OC(=O)c3ccccc3)C3[C@](C)(C(=O)[C@H](O)C(=C1C)C2(C)C)[C@@H](OC1OCC(O)C(O)C1O)C[C@H]1OC[C@@]31OC(C)=O (some centres undefined) | -9.39% | – | 0.326 µM [falling, full curve]
CC(C(N)=O)N1CC(c2ccccc2)CC1=O (centres undefined) | 1.96% | – | –
Cc1ccc(-c2nc3ccccc3c(=O)n2-c2ccc(O)cc2)cc1 | 102% | 16.4 µM [rising, partial curve] | 18.4 µM [rising, partial curve]
COc1cc2c(cc1OC)C(C(=O)NC(C)C)C1CCCCN1C2=O (centres undefined) | 20.4% | – | 29.1 µM [rising, single point]
CCOC(=O)c1c(/N=C/c2c(O)n(-c3ccc(F)cc3)c(=S)[nH]c2=O)sc2c1CCCC2 | 11.4% | – | 0.146 µM [falling, full curve, poor fit]
COc1ccc(O)c(C(C)(C)C)c1 | 118% | 29.1 µM [rising, single point] | –
CCOC(=O)C1SC2(C(F)F)CC1(O)c1c(c(OC)c3occc3c1OC)O2 (centres undefined) | – | 0.517 µM [rising, full curve] | 0.58 µM [rising, full curve]
Cc1ccc(N=C(N(C)C)P(=O)(N(C)C)N(C)C)cc1 | -18.3% | – | 0.164 µM [falling, full curve, poor fit]
CN1C(=O)C(Cc2c[nH]c3ccccc23)C(=O)N(C)C1=O | – | 6.51 µM [rising, single point] | 5.17 µM [rising, single point]
CN(CC(=O)Nc1cccc(F)c1)C(=O)Cn1c(=O)oc2ccccc21 | – | 0.00731 µM [falling, full curve, poor fit] | –
O=C1NC(=O)C2(C(=O)N1)C(c1ccc(F)cc1)NC(=S)NC2c1ccc(F)cc1 (centres undefined) | -102% | 16.4 µM [falling, single point] | 0.259 µM [rising, full curve, poor fit]
CCOCCCNC(=O)CN1C2CCC1CC(O)(c1ccc(OC)cc1)C2 (centres undefined) | 5.36% | – | 0.651 µM [rising, full curve, poor fit]
Fc1ccc(C2=CCN(C(c3cccs3)c3nnnn3CCc3ccccc3)CC2)cc1 (centres undefined) | 52.7% | 7.31 µM [rising, partial curve] | 3.26 µM [rising, partial curve]
Cn1c2ccccc2c2c(C(=O)N3CCC4(CC3)OCCO4)cn(C3CCCC3)c(=O)c21 | – | 4.11 µM [rising, partial curve] | 4.61 µM [rising, partial curve]
O=C(Cc1ccccc1)OCC(=O)N1CCN(S(=O)(=O)c2ccc(Cl)cc2)CC1 | 1.39% | – | 29.1 µM [falling, single point]
O=c1[nH]c(=O)n(Cc2ccco2)c(O)c1C=NCc1cccs1 | -1.73% | – | 6.51 µM [falling, single point]
COc1ccc(C(=O)CN2CCOCC2)cc1F | -40.7% | 23.1 µM [falling, partial curve] | 32.6 µM [falling, partial curve, poor fit]
CCC(C)(C)c1ccc(O)cc1 | -31.5% | 4.11 µM [falling, single point] | 0.206 µM [falling, full curve]
